Results deposited as PubChem BioAssay AID1671195 (Yale University, 2021).
The deposit covers about 22,000 reagents; below is a random part of them. Over the whole deposit, about 1,510 (6.9%) got an active call. 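Active includes knockdowns raising or lowering LDL uptake; positive z-scores mean more uptake, negative mean less.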 Reagents against one gene are numbered here.

- Aim: 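Regulators of LDL receptor activity judged by labelled LDL uptake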 (primary screen)
- Cells: human Huh7 hepatoma cells
- Reagents: siRNA pool against human genes, 18 nM
- Duration: about 2 to 2.5 days of knockdown, then 8 h LDL uptake
- Conditions: DiI-labelled LDL at 30 µg/ml for 8 h, in lipoprotein-deficient serum medium
- Detection: 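Fluorescent LDL signal imaged in cells, scaled to the plate median, robust z-score for each replicate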
- Scale: robust z-score: higher = more LDL uptake after knockdown
- Hit rule: 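a gene counts as active if at least two replicate z-scores exceed ±2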

gene knocked down	pool no.	robust z-score, replicate 1	robust z-score, replicate 2	robust z-score, replicate 3	Call
REG1A (regenerating family member 1 alpha)	1	-2.17	-1.14	-1.38	inactive
PIGA (phosphatidylinositol glycan anchor biosynthesis class A)	1	-1.31	-1.52	-1.58	inactive
GBP3 (guanylate binding protein 3)	1	6.41	4.61	4.32	active
E2F8 (E2F transcription factor 8)	1	-0.493	-0.333	-0.0769	inactive
LMTK3 (lemur tail kinase 3)	1	1.59	0.335	0.477	inactive
RNF145 (ring finger protein 145)	1	-1.23	-0.956	-1.31	inactive
API5 (apoptosis inhibitor 5)	1	4.25	1.34	2.78	active
NR2F6 (nuclear receptor subfamily 2 group F member 6)	1	1.21	0.982	1.16	inactive
PDXDC2P-NPIPB14P (PDXDC2P-NPIPB14P readthrough, transcribed pseudogene)	1	1.58	2.02	1.29	inactive
PDXDC2P-NPIPB14P (PDXDC2P-NPIPB14P readthrough, transcribed pseudogene)	2	-0.327	-0.403	-0.709	inactive
FCSK (fucose kinase)	1	-1.51	-1.92	-2.13	active
LOC390734 (retired record)	1	-0.313	-0.691	-0.452	inactive
B3GALNT2 (beta-1,3-N-acetylgalactosaminyltransferase 2)	1	0.216	-0.39	0.214	inactive
RND1 (Rho family GTPase 1)	1	2.11	-0.0757	0.957	inactive
SMARCA4	1	-0.916	-1.35	-1.04	inactive
NDRG3 (NDRG family member 3)	1	-0.476	-1.25	-0.912	inactive
NIBAN2 (niban apoptosis regulator 2)	1	0.312	0.00837	0.204	inactive
FCAMR (Fc alpha and mu receptor)	1	-0.516	-0.537	-0.441	inactive
PGBD1 (piggyBac transposable element derived 1)	1	-0.68	-0.488	-0.265	inactive
LOC441372 (retired record)	1	-0.963	-0.861	-0.74	inactive
CCDC85A (coiled-coil domain containing 85A)	1	1.12	-0.618	0.401	inactive
LOC132969 (retired record)	1	1.24	-0.404	0.172	inactive
SCD5 (stearoyl-CoA desaturase 5)	1	-0.917	-0.946	-0.857	inactive
STRN3 (striatin 3)	1	-1.82	1.87	-0.903	inactive
PPARGC1A (PPARG coactivator 1 alpha)	1	2.08	1.23	1.98	active
PEX2 (peroxisomal biogenesis factor 2)	1	0.922	0.717	0.816	inactive
TLX3 (T cell leukemia homeobox 3)	1	0.515	0.288	0.366	inactive
DCLK3 (doublecortin like kinase 3)	1	0.667	0.0634	-0.6	inactive
FOLR1P1 (folate receptor 1 pseudogene 1)	1	-0.419	-0.162	-0.71	inactive
PRPF31 (pre-mRNA processing factor 31)	1	0.125	1.02	0.0026	inactive
GPX5 (glutathione peroxidase 5)	1	-0.681	-0.162	-0.509	inactive
ACP7 (acid phosphatase 7, tartrate resistant (putative))	1	-1.08	-0.902	-0.945	inactive
SYTL5 (synaptotagmin like 5)	1	2.5	2.84	3.17	active
LOC441859 (retired record)	1	0.869	1.09	0.403	inactive
LOC400669 (retired record)	1	-1.6	-1.73	-1.61	inactive
PGBP (pepsinogen B, pseudogene)	1	-0.868	-1.11	-1.15	inactive
FAM174C (family with sequence similarity 174 member C)	1	-1.22	0.963	-0.435	inactive
PELO (pelota mRNA surveillance and ribosome rescue factor)	1	-0.985	-0.684	-0.681	inactive
H2AX (H2A.X variant histone)	1	-0.0164	-0.181	-0.149	inactive
OR5F1 (olfactory receptor family 5 subfamily F member 1)	1	-0.341	-0.458	-0.205	inactive
KCNH5 (potassium voltage-gated channel subfamily H member 5)	1	-0.0579	-1.27	0.386	inactive
KCNH1 (potassium voltage-gated channel subfamily H member 1)	1	1.51	1.46	1.42	inactive
MTMR8 (myotubularin related protein 8)	1	0.573	0.519	0.475	inactive
OXNAD1 (oxidoreductase NAD binding domain containing 1)	1	-0.169	-0.533	-0.275	inactive
IL36G (interleukin 36 gamma)	1	-1.37	-1.08	-1.24	inactive
KRTAP4-2 (keratin associated protein 4-2)	1	0.137	-0.304	-0.386	inactive
GLT8D1 (glycosyltransferase 8 domain containing 1)	1	1.21	1.17	0.728	inactive
GREB1L (GREB1 like retinoic acid receptor coactivator)	1	-1.51	-1.05	-0.61	inactive
KCNN1 (potassium calcium-activated channel subfamily N member 1)	1	-0.768	-0.587	-0.606	inactive
CPVL (carboxypeptidase vitellogenic like)	1	-0.148	-0.829	0.115	inactive
MKLN1 (muskelin 1)	1	-0.172	-1.28	-0.113	inactive
LOC441598 (retired record)	1	0.641	0.628	0.535	inactive
DENND2B (DENN domain containing 2B)	1	-0.206	0.219	1.51	inactive
NMB (neuromedin B)	1	-1.25	-1.72	-1.04	inactive
F5 (coagulation factor V)	1	1.93	2.12	2.26	active
POLR2B (RNA polymerase II subunit B)	1	-1.09	-0.857	-0.974	inactive
NUCKS1	1	-0.0763	-0.79	-0.391	inactive
SLC71A3P	1	-0.561	-0.0939	-0.65	inactive
DUSP21 (dual specificity phosphatase 21)	1	-1.85	-2.11	-2.19	active
SMIM10L2A (small integral membrane protein 10 like 2A)	1	0.31	0.378	0.0553	inactive
CAPZB (capping actin protein of muscle Z-line subunit beta)	1	0.859	0.505	0.0673	inactive
CYSTM1 (cysteine rich transmembrane module containing 1)	1	-1.78	-1.38	-2.13	inactive
PEDS1-UBE2V1 (PEDS1-UBE2V1 readthrough)	1	0.456	-0.417	-0.597	inactive
SPATA6 (spermatogenesis associated 6)	1	1.36	1.44	1.04	inactive
RPS4X (ribosomal protein S4 X-linked)	1	-1.21	-0.534	0.367	inactive
LOC388204 (retired record)	1	1.55	1.33	2.46	inactive
EFCC1 (EF-hand and coiled-coil domain containing 1)	1	-1.24	0.243	-0.122	inactive
ATXN1L (ataxin 1 like)	1	-1.05	-1.02	-1	inactive
EEA1 (early endosome antigen 1)	1	-0.292	-0.214	-1.44	inactive
PSMD5 (proteasome 26S subunit, non-ATPase 5)	1	0.0651	0.162	-0.214	inactive
DYNLL1P3 (dynein light chain LC8-type 1 pseudogene 3)	1	-1.63	-1.57	-1.37	inactive
ACOT2 (acyl-CoA thioesterase 2)	1	-0.647	-1.3	-0.293	inactive
NOP56 (NOP56 ribonucleoprotein)	1	-0.696	-0.998	-0.721	inactive
KDELR3 (KDEL endoplasmic reticulum protein retention receptor 3)	1	-0.999	1.1	-1.56	inactive
HNRNPCL1 (heterogeneous nuclear ribonucleoprotein C like 1)	1	-0.539	-0.678	-1.51	inactive
OR6C3 (olfactory receptor family 6 subfamily C member 3)	1	-1.11	-0.761	-0.842	inactive
RD3 (RD3 regulator of GUCY2D)	1	1.28	1.13	0.864	inactive
MCHR2 (melanin concentrating hormone receptor 2)	1	-0.967	-0.614	-0.559	inactive
RNF130 (ring finger protein 130)	1	-0.609	0.252	0.697	inactive
SGF29 (SAGA complex associated factor 29)	1	-0.493	0.0343	-0.428	inactive
LOC401112 (retired record)	1	-1.71	-1.7	-1.81	inactive
LOC441604 (retired record)	1	1.42	0.802	0.618	inactive
DNM1L (dynamin 1L)	1	0.383	1.64	0.358	inactive
VIL1 (villin 1)	1	-0.44	-1.54	0.763	inactive
TMEM130 (transmembrane protein 130)	1	-1.58	-1.55	-1.14	inactive
TMEM14B (transmembrane protein 14B)	1	1.34	0.973	1.04	inactive
BMP2 (bone morphogenetic protein 2)	1	-1.5	-2	0.0177	inactive

Ordered by “robust z-score, replicate 2” (low to high): some entries from above
gene knocked down	pool no.	robust z-score, replicate 1	robust z-score, replicate 2	robust z-score, replicate 3	Call
KCNH5 (potassium voltage-gated channel subfamily H member 5)	1	-0.0579	-1.27	0.386	inactive
IL36G (interleukin 36 gamma)	1	-1.37	-1.08	-1.24	inactive
GREB1L (GREB1 like retinoic acid receptor coactivator)	1	-1.51	-1.05	-0.61	inactive
PELO (pelota mRNA surveillance and ribosome rescue factor)	1	-0.985	-0.684	-0.681	inactive
OXNAD1 (oxidoreductase NAD binding domain containing 1)	1	-0.169	-0.533	-0.275	inactive
OR5F1 (olfactory receptor family 5 subfamily F member 1)	1	-0.341	-0.458	-0.205	inactive
KRTAP4-2 (keratin associated protein 4-2)	1	0.137	-0.304	-0.386	inactive
H2AX (H2A.X variant histone)	1	-0.0164	-0.181	-0.149	inactive
MTMR8 (myotubularin related protein 8)	1	0.573	0.519	0.475	inactive
FAM174C (family with sequence similarity 174 member C)	1	-1.22	0.963	-0.435	inactive
GLT8D1 (glycosyltransferase 8 domain containing 1)	1	1.21	1.17	0.728	inactive
KCNH1 (potassium voltage-gated channel subfamily H member 1)	1	1.51	1.46	1.42	inactive
